From PubChem BioAssay AID2685 (National Center for Advancing Translational Sciences (NCATS), 2010) come the findings set out here.

This is one part of the list. These are further read-outs of the screen, such as a control signal, another cell line or another target. No call is given for them. Most of these compounds were active or inconclusive in the main read-out, so they are no random draw. Potencies come from curve fits of mixed quality, noted in brackets.

The nature of the experiment: qHTS Assay for Lipid Storage Modulators in Drosophila S3 Cells.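 As to cell number change: cells counted by Cell Tracker Red CMTPX staining in the red channel.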 The conditions noted are these: BODIPY lipid droplet fluorescence, 18-24 h; for cell number change: measured here: cell count max response, cells fed with added oleic acid. Summed up: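 Laser-scanning cytometry quantifies lipid droplet accumulation (500–530 nm total intensity; droplet/cell object ratio) in oleic acid-fed (400 uM added) Drosophila S3 cells treated with a concentration series. 20 uM Triacsin C defined 100% inhibition.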
On the technique in general: qHTS replaces the single test concentration by a dilution series.

Where [1] appears, read: measured here: lipid fluorescence (Fed channel) AC50, cells fed with added oleic acid.
Where [2] appears, read: measured here: cell number channel AC50, cells fed with added oleic acid.

With `Nc1ccc(C(=O)OCC(=O)Nc2cc([N+](=O)[O-])ccc2F)cc1`, the cell number change worked out at 10.2%. In addition, the AC50 (as a rule, the concentration giving half of the maximal activity seen) under setting [1] was 29.1 µM [rising, single point].
Consider `COc1ccc(C(=O)NC(=S)Nc2cccnc2)cc1[N+](=O)[O-]`, for which the AC50 under setting [1] was 23.1 µM [rising, single point].
As to `CCOc1ccc2nc(N/C(N)=N/C(=S)Nc3cccc(C)c3)nc(C)c2c1`, the cell number change came to 18.4%. Further, the AC50 under setting [1] was 29.1 µM [rising, single point].
As to `O=C(Nc1ccc(Cl)cc1)c1cccs1`, the cell number change was -1.59%. Besides, under setting [1], the AC50 is 6.51 µM [falling, partial curve, poor fit].
In the case of `O=C(Nc1cccc(Cl)c1)c1cc(-c2ccco2)on1`, the cell number change was found to be 30%.
On to `Oc1ccccc1-c1nc(NCc2ccco2)c2ccccc2n1`, for which the cell number change was -44.2%. Besides, the AC50 under setting [1] was 4.61 µM [rising, full curve, poor fit].
As for `CC(C)C(=O)NCCSc1c[nH]c2ccccc12`, the cell number change is -0.851%. For the same compound, the AC50 under setting [2] is 1.03 µM [falling, full curve]. Also, the AC50 under setting [1] is 0.82 µM [falling, full curve].
For the compound `COc1ccc([C@@]2(O)c3c(ccc(CC=C(C)C)c3O)NC(=O)[C@@H]2OC)cc1`, the cell number change was -15.9%. Under setting [1], the AC50 was 0.116 µM [falling, full curve, poor fit].
On to `COc1cc(/C=C/C(=O)NC(C)(C)C)ccc1OCc1ccccc1`, for which the AC50 under setting [1] was 29.1 µM [falling, single point].
Turning to `CC1=NN(C(N)=S)C(=O)C1N=Nc1ccc(C)cc1C` (configuration not stated), the cell number change came out at 12.5%. The AC50 under setting [1] was 6.51 µM [falling, single point].
With `CCOC(=O)c1ccc(NC(=O)CSc2nnc(Cc3cccs3)n2C)cc1`, the cell number change is -12.6%.
Consider `CCOC(=O)C1CCN(S(=O)(=O)c2ccc(OC)c(Cl)c2Cl)CC1`, for which the cell number change is -31.2%. In addition, the AC50 under setting [2] is 0.411 µM [falling, full curve, poor fit]. The AC50 under setting [1] is 5.8 µM [falling, single point].
Turning to `CC1(C)CC(=O)c2sc(NS(=O)(=O)Cc3ccccc3)nc2C1`, the cell number change was 0.28%. Further, the AC50 under setting [2] was 0.00517 µM [rising, full curve, poor fit].
In the case of `O=C(CCCSc1nc2ccccc2[nH]1)NC1CCCCC1`, the AC50 runs as follows: under setting [2], 2.91 µM [rising, single point]; under setting [1], 3.26 µM [rising, single point].
Consider `Cc1ccc(-c2cn3cccnc3n2)cc1NC(=O)c1c(-c2ccccc2Cl)noc1C`, for which the cell number change was -50.4%. In addition, the AC50 under setting [2] is 23.1 µM [falling, single point].
Turning to `N#Cc1nc(COc2ccc(F)cc2)oc1N1CCCC1`, the cell number change turned out to be 17.7%. The AC50 under setting [1] was 2.06 µM [rising, partial curve].
Consider `CC(=O)OC1CCC2(C)C(COc3ccc4ccc(=O)oc4c3)C(C)(O)CCC2C1(C)C` (configuration not stated), for which the cell number change is -19.7%. Besides, the AC50 under setting [1] is 2.91 µM [rising, single point].
